Here are results for 107 sequences from PubChem BioAssay AID1508600 (Functional Genomics Laboratory (NCATS/FGL), 2020).

Among all 53,000 sequences or so, about 3,700 (7%) were called active.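 The calls were made as follows: active = gene knockdowns whose robust z-score for IL-1 alpha signal is at least 2 or at most -2, so actives lie on both sides; inactive = the rest.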 The list shows a part of the results.

The experiment in a line: Components of the Cytosolic LPS Sensing Pathway: Gene Identification via Genome-wide siRNA Screen.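 Also: robust z of the log signal after scaling to non-targeting control siRNA wells of the plate.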 The settings on record: RAW264.7 macrophages, IL-1a HTRF, actives lie on both sides, screened at 100 nM (by protocol), cells primed 5 h with Pam3CSK4 first. Summed up: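 IL-1a HTRF of supernatants after 24 hour LipidA transfection of Pam3CSK4-primed (5 hours) RAW264.7 cells, 48h post-siRNA transfection (100 nM). Scores: percent of plate negative-control median, then log-based robust z-score.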
On to GCUACAGAACCUGCUCUACTT against Thoc5, for which the z-score was inactive: 0.391.
Then GGAACCUCUCAAUUUUGCGTT against Pik3ip1, with inactive: 0.659.
As to GGAUAGAGAGAGGUAGCAUTT against Lrrc15, the z-score was inactive: -0.714.
With CCUUAUGGAGCAAACAACATT against Fam221b, the z-score was inactive: -0.562.
As to CCUCCCUAAGGUUAUAGACTT against Acot5, the z-score is inactive: -1.47.
Take GCAGCUCUCAACAGUUAUATT against Rpf1: the z-score was inactive: 1.11.
On to GGGUUGUGCAUUUUAUUGGTT against Tecrl, for which the z-score is inactive: -0.733.
Then GAUGGUGUCUAGUGAGAGCTT against Oxct2b, with active: -2.01; and GUUACAAAACAUCGGUGGGTT against Vsig2, with inactive: 1.06.
GGUUUUAAAGCAUCUUCGUTT against Pard6g: the z-score was inactive: -0.284.
As for CGGCAUGGUGACCUAAUGCTT against Trmt12, the z-score was inactive: -1.34.
In the case of GGUGUUGAAAGUCAUUGUGTT against Med27, the z-score was inactive: -0.196.
Then GGAGGAAGUUGUAUAUUUUTT against Psmd10, with inactive: 0.539; and GCUUCCUACGGUGUGUCAATT against Hnrnpu, with active: -2.43.
For the sequence GCGAACAUCCCAACAACAGTT against Igfbp4, the z-score is inactive: 1.12.
As to GGAAGUGUGAACUUCAUCATT against Zdhhc6, the z-score was active: 2.78.
In the case of GCUACUGAGUUAUAGAAAGTT against Olfr1316, the z-score is inactive: 1.04.
Take GCUGAAGAUGGAGCCUUGUTT against Krt88: the z-score was inactive: -1.33.
For the sequence GGAAAAACGUGGUGAACUATT against Zeb2, the z-score is inactive: 0.7.
As to GGAUGUUUUGGAGCCCUAGTT against Scml4, the z-score is inactive: -0.125.
GAUCCUGCAUCUUUAGUGUTT against Ascl1: the z-score is inactive: -0.0831.
As to GCCGAUUCAAUACUGUGACTT against Rnf149, the z-score is inactive: -0.649.
Consider GGAAGAUGGUUUGUAGAUATT against Ddx56, for which the z-score was inactive: -1.92.
With GGCAUUCUGAGGAGAGCAATT against Tfap2d, the z-score was inactive: 0.00663.
Turning to GGGUGAGUGUCGGAACUUUTT against Sema6b, the z-score was inactive: -0.157.
Then GGGAUUGGCACUUUCCAAGTT against Akap7, with inactive: 1.75.
Then CCCUUGCUUGCUAAGAUUUTT against Scyl3, with inactive: -0.684; and CGUUAACUCUCGGACGAUCTT against Fitm1, with inactive: 0.576.
Consider GGAGUGAAAUUUACUGGGUTT against Hdgfl3, for which the z-score was inactive: 1.28.
The result for GGUUUUAUCCCUGUUUCCUTT against Naaa reads inactive: -0.115; that for GUUGGUAAAGGUCCUUGCCTT against Gtf2h5, inactive: 0.33; that for GGAGUCAACUUGUGAGGGUTT against Lrp8, inactive: -0.48.
For “GGGUUCAAGAUAUCAAGUATT against 4933434E20Rik”, the z-score is inactive: 1.23.
The result for GCACCAUUUGAGUUUUUCUTT against Vmn1r8 reads inactive: -0.578.
For the sequence CCCUUGCUUUCAUGAUUUATT against Trim30b, the z-score is inactive: 0.714.
For GGAGAGGUUCCAUGUGACUTT against Chchd10, the z-score is inactive: -1.08.
Then GGCCUGUAUUCUGCUCUGUTT against Olfr341, with inactive: 0.0576; and GCAGCUGUCCGUAUAUCUUTT against Uxt, with inactive: 0.377.
As to GGUUUUGGAUACCAAAAACTT against Cript, the z-score was inactive: 0.106.
With CCCUGGACUAAGGAUCACCTT against Cops5, the z-score was inactive: -1.2.
In the case of GCUUAAUGCUAGGUUACAATT against Kng2, the z-score is inactive: -1.2.
Turning to GCCCACUUUGUUUAGUUAATT against Lancl1, the z-score is inactive: 0.889.
Take GCACAAUAAUAAUGACACUTT against AI597479: the z-score is active: 2.76.
For GGAGAAACGGAAGGAAAAGTT against Rpl13a, the z-score is inactive: 0.656.
Consider GCAUCGUGGAACCUAAAGATT against Rps3, for which the z-score is inactive: -0.641.
Regarding GCAAUUGACCAGAUUUGUGTT against Npr1, the z-score was inactive: -0.384.
As to GGCAAGGAGAAAGGAUUGUTT against Clec10a, the z-score was inactive: -0.374.
GGCUGAAGUAAGGUUUCACTT against Mrpl58: the z-score was inactive: 0.354.
Take CGAUACCUUCGCCAAAAAGTT against Tbc1d1: the z-score is inactive: -0.47.
Then GGGCUCCAAUUUGCUACCATT against Grp, with inactive: 0.342; and GGAUGAAGAUGCUGUCAGCTT against Arhgef3, with inactive: -1.77; and GGAAAGAAACUUUCUCUUUTT against Cdkn2d, with inactive: -0.374.
Turning to GGUCAACCAGAAACUUUACTT against Acvr1, the z-score is inactive: -1.36.
Then GGUGAUGCGCCUGAAGGAUTT against Ntng2, with inactive: -0.668; and GGUUGUGGCUGCUACUAUUTT against Pira1, with inactive: 1.94.
The result for GGGCCUAAAUGUGAAACACTT against Src reads inactive: -0.222; that for GGUAUGGAGUGAAGUGACCTT against Mmp11, inactive: -1.37; that for GGGCAACUGUACGUACCAUTT against Cd93, inactive: 0.0137.
Turning to GGUCACAGAUAAGAAUGACTT against Cd96, the z-score is inactive: 0.692.
Then GGCUUCUACCUUCGAGACUTT against Carns1, with active: -2.3.
Regarding GCAUCAACUCCUGAGCUCUTT against Cenpx, the z-score was inactive: -1.5.
Regarding GCAAAUGUCUCUUCAGUGATT against Olfr885, the z-score was inactive: 0.996.
For the sequence GGCAGAGGCUGACUUCUACTT against Kctd11, the z-score is inactive: 0.698.
Consider GCAGUGUGAUGGGACUGUATT against Aga, for which the z-score was inactive: 0.08.
The result for CGUAAGAUUGACUCUAGUATT against Prl6a1 reads inactive: 0.326.
As for GCUGGUCUUUCAAGUCAAGTT against Stat5b, the z-score was active: 2.62.
As to GCCGUUUAAACAGUUCAACTT against Tifa, the z-score was inactive: 0.624.
Consider CGGCCGUAUGAAGAAGAUATT against Phactr1, for which the z-score is inactive: -0.694.
For CGACGGAGUCAGUUAAAACTT against Psmd12, the z-score is inactive: -0.204.
Then “GCUGCCUCCUUAGGUGUUATT against A930018P22Rik”, with inactive: 0.294; and GGAGAGAUGGAUGGAAAAATT against Klk1b7-ps, with inactive: -0.925; and GCUGAUUAAUGAAGAAGCUTT against Kpna6, with inactive: 1.9.
Consider GGAAGAAGCAGAAGAACAUTT against Rpl12, for which the z-score is active: 2.55.
As for CCAAGGGUUAAGUCUUCAUTT against Zranb1, the z-score was inactive: 0.738.
The result for GGAUUUUCCAUUUCUUCACTT against Tubgcp4 reads inactive: -0.924.
For CCGUGAUGGACAUCUAUUCTT against Kctd18, the z-score is inactive: 0.256.
As to GCUACAGUCGUUGUUUGAATT against Serpinf1, the z-score is inactive: 1.53.
With GGAUUCGUUCAGCUAAGGGTT against Olfr1023, the z-score was inactive: 1.29.
Regarding GGUCUUAGCUGUCCUCAAGTT against Olfr273, the z-score was inactive: -0.811.
As to CCUUCCUGUUGUCAUGAGATT against Eipr1, the z-score is inactive: -0.868.
For the sequence GGCUAUGUUUCAGAAUAUGTT against Sohlh2, the z-score is inactive: -0.541.
On to GGACUUAAUCAACCUAACCTT against Sgms1, for which the z-score is inactive: -1.44.
As for GCAACAUAUGGUAUACUGUTT against Mdm4, the z-score was inactive: 1.41.
In the case of GGAAGGGCCACUUAAUGCUTT against Zzz3, the z-score is inactive: 1.12.
With GGAGCAUCCCUACGAUGCATT against Atp6v1f, the z-score was inactive: 0.349.
Regarding GGUGAACUGUUCUUCCUCATT against Icam1, the z-score was inactive: -0.811.
In the case of GCUGCUUAGAUACAUUUUUTT against Ddias, the z-score is inactive: 0.584.
Regarding GGUUAUCCUGUUACAGUACTT against Spata2l, the z-score is inactive: 0.35.
CCUUGAAAUUCGUUAUCAUTT against Tmc7: the z-score was inactive: -0.225.
Turning to “CGCGAUUGCACUCUUAUUATT against 2610001J05Rik”, the z-score was inactive: 0.958.
On to GGCACUAAUUUAGACAAAGTT against Ccdc66, for which the z-score is inactive: 1.65.
Turning to GGUACAAUUCUUCUUUCGUTT against Olfr1420, the z-score is inactive: -0.55.
As for GGGCAUCACUUGUAAUUAATT against Bcl10, the z-score is active: -2.06.
Take GCUAAUCUCUCAAAUGUUUTT against Kpna1: the z-score was inactive: 0.506.
For the sequence GGUUCGAAAUUUUCUAACCTT against Gpr50, the z-score is inactive: 1.24.
For the sequence GGAACCUUUCAGAAAUAUATT against Calhm5, the z-score is inactive: -0.53.
For GCAAGAAGUAAUCAACUUUTT against Cnot9, the z-score is inactive: -0.997.
The result for GCUCCACACUACGUGUCAUTT against Olfr476 reads inactive: 1.66; that for GGAGGAUCACCCAUCAAAUTT against Oxct1, inactive: -0.083; that for GGAAAAAUGAACUUCAGUGTT against Cetn2, inactive: 1.19.
Regarding GGCCAAAGGAGUUCAUGAUTT against Gcm2, the z-score was inactive: -0.904.
CCUGCUCUUCGUUAUCUUGTT against Olfr552: the z-score was inactive: 1.59.
For CCCUCACUGCUCAAAUUCUTT against Ifna12, the z-score is inactive: -0.0886.
Turning to GCACAACUCAGAAGUAAUUTT against Ghr, the z-score is inactive: 0.271.
The result for GGUAUCUACCAGUACGAGATT against Izumo4 reads inactive: -1.59.
GGGAUCAUCUCUUUUGCUGTT against Olfr720: the z-score was inactive: -1.33.
As for GGAAGUUACAGAUGUGGCUTT against Nog, the z-score is inactive: -0.879.
